Data from article PMC11720235.

Experiments:
[1] = target: T1, NtCDKG;2 (N. tabacum Cyclin-Dependent Kinase G;2), fused to the GAL4 DNA binding domain (Nicotiana tabacum); assay: two-hybrid; pairwise (binary) test in yeast PJ69-4α; DBD-NtCDKG;2 (pDEST32) with AD fusions (pDEST22); growth on SD without leucine, tryptophan and histidine, 30 °C, 2-3 days; 1 mM 3-amino-1,2,4-triazole for NtRanBP1
T1 sequence: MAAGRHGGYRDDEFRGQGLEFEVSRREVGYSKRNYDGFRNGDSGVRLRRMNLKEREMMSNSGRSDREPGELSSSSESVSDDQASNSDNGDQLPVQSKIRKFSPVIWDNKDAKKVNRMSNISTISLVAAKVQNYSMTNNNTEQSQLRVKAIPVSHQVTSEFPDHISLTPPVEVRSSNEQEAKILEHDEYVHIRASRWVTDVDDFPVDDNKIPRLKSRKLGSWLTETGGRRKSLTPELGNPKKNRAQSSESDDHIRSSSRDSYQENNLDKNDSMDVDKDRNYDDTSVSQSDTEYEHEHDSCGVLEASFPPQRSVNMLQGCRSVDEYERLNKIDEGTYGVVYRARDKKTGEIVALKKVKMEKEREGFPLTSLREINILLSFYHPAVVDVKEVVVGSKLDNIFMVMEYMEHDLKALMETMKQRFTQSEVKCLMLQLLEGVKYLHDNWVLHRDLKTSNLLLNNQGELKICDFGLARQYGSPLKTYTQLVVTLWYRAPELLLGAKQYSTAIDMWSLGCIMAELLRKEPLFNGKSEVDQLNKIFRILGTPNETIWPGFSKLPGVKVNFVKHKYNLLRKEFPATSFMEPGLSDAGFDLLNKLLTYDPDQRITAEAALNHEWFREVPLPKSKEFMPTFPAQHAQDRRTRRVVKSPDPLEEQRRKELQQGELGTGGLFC

[2] = target: T1, NtCDKG;2 (N. tabacum Cyclin-Dependent Kinase G;2), fused to the GAL4 DNA binding domain (Nicotiana tabacum); assay: two-hybrid; screen of a N. tabacum stigma/style cDNA library with NtCDKG;2 in pDEST32 as bait; positive clones Sanger-sequenced

binding [1]: binds | binding [2]: binds
Substance: Ntβ-tubulin, fused to the GAL4 activation domain (Nicotiana tabacum)

Results are given in words; binding and its absence hold for the method and conditions named. Binding can be weak; no strength is given. Tags and fused reporters may be left off the sequences shown.
